{"source": "paper PMC3828177", "binders": {"B1": {"name": "FLAG-Cdc55 (wild type) (protein, UniProt Q00362 1-526)", "chain": "MAQNNFDFKFSQCFGDKADIVVTEADLITAVEFDYTGNYLATGDKGGRVVLFERSNSRHCEYKFLTEFQSHDAEFDYLKSLEIEEKINEIKWLRPTQRSHFLLSTNDKTIKLWKVYEKNIKLVSQNNLTEGVTFAKKGKPDNHNSRGGSVRAVLSLQSLKLPQLSQHDKIIAATPKRIYSNAHTYHINSISLNSDQETFLSADDLRINLWNLDIPDQSFNIVDIKPTNMEELTEVITSAEFHPQECNLFMYSSSKGTIKLCDMRQNSLCDNKTKTFEEYLDPINHNFFTEITSSISDIKFSPNGRYIASRDYLTVKIWDVNMDNKPLKTINIHEQLKERLSDTYENDAIFDKFEVNFSGDSSSVMTGSYNNNFMIYPNVVTSGDNDNGIVKTFDEHNAPNSNSNKNIHNSIQNKDSSSSGNSHKRRSNGRNTGMVGSSNSSRSSIAGGEGANSEDSGTEMNEIVLQADKTAFRNKRYGSLAQRSARNKDWGDDIDFKKNILHFSWHPRENSIAVAATNNLFIFSAL"}, "B2": {"name": "FLAG-Cdc55 D342K/E345K/D347K (protein, UniProt Q00362 1-526)", "chain": "B1 chain with D342K, E345K, D347K"}, "B3": {"name": "FLAG-Cdc55 K86E (protein, UniProt Q00362 1-526)", "chain": "B1 chain with K86E"}, "B4": {"name": "FLAG-Cdc55 D342K (protein, UniProt Q00362 1-526)", "chain": "B1 chain with D342K"}, "B5": {"name": "FLAG-Cdc55 E84K (protein, UniProt Q00362 1-526)", "chain": "B1 chain with E84K"}, "B6": {"name": "FLAG-Cdc55 E82K/E84K/E85K/K86E (protein, UniProt Q00362 1-526)", "chain": "B1 chain with E82K, E84K, E85K, K86E"}, "B7": {"name": "FLAG-Cdc55 D347K (protein, UniProt Q00362 1-526)", "chain": "B1 chain with D347K"}, "B8": {"name": "FLAG-Cdc55 E85K (protein, UniProt Q00362 1-526)", "chain": "B1 chain with E85K"}, "B9": {"name": "FLAG-Cdc55 E82K (protein, UniProt Q00362 1-526)", "chain": "B1 chain with E82K"}, "B10": {"name": "FLAG-Cdc55 E345K (protein, UniProt Q00362 1-526)", "chain": "B1 chain with E345K"}}, "molecular_target": "HA-E4orf4 (wild type), expressed in yeast (human adenovirus)", "experiment": "co-IP; lysates of cdc55Δ yeast (YS95) expressing FLAG-Cdc55 species and galactose-induced HA-E4orf4; reciprocal anti-FLAG and anti-HA precipitations; blots with anti-HA, anti-FLAG and anti-Tpd3", "note": "Changes are numbered by the printed parent chain. Names and notes keep the numbering of the source. No constants are given. Whether binding was seen depends on the method and setting. In cells and extracts the contact can be indirect. A result given as binding can be weak or reduced; the word gives no strength. Where a sequence is shown, tags or fusion partners need not be part of it.", "data": [{"binder": "B1", "values": [{"measurement": "binding", "value": "binds"}]}, {"binder": "B2", "values": [{"measurement": "binding", "value": "no binding"}]}, {"binder": "B3", "values": [{"measurement": "binding", "value": "binds"}]}, {"binder": "B4", "values": [{"measurement": "binding", "value": "binds"}]}, {"binder": "B5", "values": [{"measurement": "binding", "value": "binds weakly"}]}, {"binder": "B6", "values": [{"measurement": "binding", "value": "no binding"}]}, {"binder": "B7", "values": [{"measurement": "binding", "value": "no binding"}]}, {"binder": "B8", "values": [{"measurement": "binding", "value": "binds"}]}, {"binder": "B9", "values": [{"measurement": "binding", "value": "binds"}]}, {"binder": "B10", "values": [{"measurement": "binding", "value": "binds"}]}]}
